Source: the supplement of paper PMC7661543
The effect of the compound repeats well; differences between the knockouts mostly do not.

Test system: HCC-38
Experiment: relative cell number vs DMSO control (72 h) (% of DMSO); higher = less growth inhibition (more cells)
Description: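 QMAP-Seq: a pool of 5 breast cancer cell lines (ZR-75-1, SKBR3, HCC-38, MDA-MB-231, BT-20), each carrying 12 doxycycline-inducible Cas9 sgRNA perturbations (11 knockouts plus non-targeting sgNT), was treated with compounds for 72 h at four 10-fold doses (10 nM-10 uM or 1 nM-1 uM range). Barcodes were amplified and sequenced, and cell number was interpolated from 293T spike-in standard curves. The result is expressed as % of the median of DMSO wells. Two biological replicates.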

C[C@@H](Oc1cc(-c2cnn(C3CCNCC3)c2)cnc1N)c1c(Cl)ccc(F)c1Cl [Crizotinib]
Conditions | relative cell number
sgRNA knockout: sgATF3, 10 nM | 93.2
sgRNA knockout: sgATF3, 100 nM | 83
sgRNA knockout: sgATF3, 1000 nM | 75.51
sgRNA knockout: sgATF3, 10000 nM | 21.7
sgRNA knockout: sgATF4, 10 nM | 97.5
sgRNA knockout: sgATF4, 100 nM | 74.8
sgRNA knockout: sgATF4, 1000 nM | 81.6
sgRNA knockout: sgATF4, 10000 nM | 21.8
sgRNA knockout: sgATF6, 10 nM | 100
sgRNA knockout: sgATF6, 100 nM | 86.3
sgRNA knockout: sgATF6, 1000 nM | 74
sgRNA knockout: sgATF6, 10000 nM | 24.6
sgRNA knockout: sgATG7, 10 nM | 93.1
sgRNA knockout: sgATG7, 100 nM | 83.1
sgRNA knockout: sgATG7, 1000 nM | 81.4
sgRNA knockout: sgATG7, 10000 nM | 23.2
sgRNA knockout: sgERN1, 10 nM | 87.2
sgRNA knockout: sgERN1, 100 nM | 85.8
sgRNA knockout: sgERN1, 1000 nM | 70.5
sgRNA knockout: sgERN1, 10000 nM | 19.8
sgRNA knockout: sgHSF1, 10 nM | 88.8
sgRNA knockout: sgHSF1, 100 nM | 89.6
sgRNA knockout: sgHSF1, 1000 nM | 66
sgRNA knockout: sgHSF1, 10000 nM | 22.6
sgRNA knockout: sgHSF2, 10 nM | 98.6
sgRNA knockout: sgHSF2, 100 nM | 88.79
sgRNA knockout: sgHSF2, 1000 nM | 84.3
sgRNA knockout: sgHSF2, 10000 nM | 27.1
sgRNA knockout: sgKEAP1, 10 nM | 81.7
sgRNA knockout: sgKEAP1, 100 nM | 109.1
sgRNA knockout: sgKEAP1, 1000 nM | 62.3
sgRNA knockout: sgKEAP1, 10000 nM | 29.2
sgRNA knockout: sgNFE2L2, 10 nM | 96.3
sgRNA knockout: sgNFE2L2, 100 nM | 74.2
sgRNA knockout: sgNFE2L2, 1000 nM | 86.8
sgRNA knockout: sgNFE2L2, 10000 nM | 22.6
sgRNA knockout: sgSLC35F2, 10 nM | 94.4
sgRNA knockout: sgSLC35F2, 100 nM | 89.9
sgRNA knockout: sgSLC35F2, 1000 nM | 76.1
sgRNA knockout: sgSLC35F2, 10000 nM | 22.4
sgRNA knockout: sgXBP1, 10 nM | 97.8
sgRNA knockout: sgXBP1, 100 nM | 83.6
sgRNA knockout: sgXBP1, 1000 nM | 84.4
sgRNA knockout: sgXBP1, 10000 nM | 21.4

CN(C)/N=N/c1[nH]cnc1C(N)=O [Dacarbazine]
Conditions | relative cell number
sgRNA knockout: sgATF3, 10 nM | 93.7
sgRNA knockout: sgATF3, 100 nM | 83.6
sgRNA knockout: sgATF3, 1000 nM | 89.614
sgRNA knockout: sgATF3, 10000 nM | 102
sgRNA knockout: sgATF4, 10 nM | 104
sgRNA knockout: sgATF4, 100 nM | 78.7
sgRNA knockout: sgATF4, 1000 nM | 94.5
sgRNA knockout: sgATF4, 10000 nM | 101
sgRNA knockout: sgATF6, 10 nM | 84.6
sgRNA knockout: sgATF6, 100 nM | 85.5
sgRNA knockout: sgATF6, 1000 nM | 98.4
sgRNA knockout: sgATF6, 10000 nM | 99.9
sgRNA knockout: sgATG7, 10 nM | 95.2
sgRNA knockout: sgATG7, 100 nM | 86.6
sgRNA knockout: sgATG7, 1000 nM | 101.5
sgRNA knockout: sgATG7, 10000 nM | 94.6
sgRNA knockout: sgERN1, 10 nM | 94.7
sgRNA knockout: sgERN1, 100 nM | 94
sgRNA knockout: sgERN1, 1000 nM | 93.7
sgRNA knockout: sgERN1, 10000 nM | 99.1
sgRNA knockout: sgHSF1, 10 nM | 92.5
sgRNA knockout: sgHSF1, 100 nM | 98.9
sgRNA knockout: sgHSF1, 1000 nM | 89.7
sgRNA knockout: sgHSF1, 10000 nM | 89.3
sgRNA knockout: sgHSF2, 10 nM | 103
sgRNA knockout: sgHSF2, 100 nM | 92.9
sgRNA knockout: sgHSF2, 1000 nM | 96.1
sgRNA knockout: sgHSF2, 10000 nM | 83.5
sgRNA knockout: sgKEAP1, 10 nM | 83
sgRNA knockout: sgKEAP1, 100 nM | 96.6
sgRNA knockout: sgKEAP1, 1000 nM | 106.9
sgRNA knockout: sgKEAP1, 10000 nM | 111
sgRNA knockout: sgNFE2L2, 10 nM | 109
sgRNA knockout: sgNFE2L2, 100 nM | 81.2
sgRNA knockout: sgNFE2L2, 1000 nM | 92.2
sgRNA knockout: sgNFE2L2, 10000 nM | 98
sgRNA knockout: sgSLC35F2, 10 nM | 86.2
sgRNA knockout: sgSLC35F2, 100 nM | 87.5
sgRNA knockout: sgSLC35F2, 1000 nM | 94.75
sgRNA knockout: sgSLC35F2, 10000 nM | 100
sgRNA knockout: sgXBP1, 10 nM | 99.75
sgRNA knockout: sgXBP1, 100 nM | 89.4
sgRNA knockout: sgXBP1, 1000 nM | 89.4
sgRNA knockout: sgXBP1, 10000 nM | 98.6

Cc1nc(Nc2ncc(C(=O)Nc3c(C)cccc3Cl)s2)cc(N2CCN(CCO)CC2)n1 [Dasatinib]
Conditions | relative cell number
sgRNA knockout: sgATF3, 10 nM | 94.4
sgRNA knockout: sgATF3, 100 nM | 71.1
sgRNA knockout: sgATF3, 1000 nM | 64.3
sgRNA knockout: sgATF3, 10000 nM | 37.5
sgRNA knockout: sgATF4, 10 nM | 99.6
sgRNA knockout: sgATF4, 100 nM | 76.5
sgRNA knockout: sgATF4, 1000 nM | 62
sgRNA knockout: sgATF4, 10000 nM | 38.1
sgRNA knockout: sgATF6, 10 nM | 89.2
sgRNA knockout: sgATF6, 100 nM | 64.7
sgRNA knockout: sgATF6, 1000 nM | 80.8
sgRNA knockout: sgATF6, 10000 nM | 41.9
sgRNA knockout: sgATG7, 10 nM | 96.3
sgRNA knockout: sgATG7, 100 nM | 68.5
sgRNA knockout: sgATG7, 1000 nM | 64
sgRNA knockout: sgATG7, 10000 nM | 33.1
sgRNA knockout: sgERN1, 10 nM | 78.5
sgRNA knockout: sgERN1, 100 nM | 63.5
sgRNA knockout: sgERN1, 1000 nM | 59.2
sgRNA knockout: sgERN1, 10000 nM | 38.7
sgRNA knockout: sgHSF1, 10 nM | 77.4
sgRNA knockout: sgHSF1, 100 nM | 75.6
sgRNA knockout: sgHSF1, 1000 nM | 77.2
sgRNA knockout: sgHSF1, 10000 nM | 27
sgRNA knockout: sgHSF2, 10 nM | 87.7
sgRNA knockout: sgHSF2, 100 nM | 68.2
sgRNA knockout: sgHSF2, 1000 nM | 65.6
sgRNA knockout: sgHSF2, 10000 nM | 31.3
sgRNA knockout: sgKEAP1, 10 nM | 86.3
sgRNA knockout: sgKEAP1, 100 nM | 70.5
sgRNA knockout: sgKEAP1, 1000 nM | 80.7
sgRNA knockout: sgKEAP1, 10000 nM | 27.6
sgRNA knockout: sgNFE2L2, 10 nM | 90.6
sgRNA knockout: sgNFE2L2, 100 nM | 61.3
sgRNA knockout: sgNFE2L2, 1000 nM | 54.6
sgRNA knockout: sgNFE2L2, 10000 nM | 32.3
sgRNA knockout: sgSLC35F2, 10 nM | 95.01
sgRNA knockout: sgSLC35F2, 100 nM | 60.9
sgRNA knockout: sgSLC35F2, 1000 nM | 62.6
sgRNA knockout: sgSLC35F2, 10000 nM | 32.7
sgRNA knockout: sgXBP1, 10 nM | 88.2
sgRNA knockout: sgXBP1, 100 nM | 65
sgRNA knockout: sgXBP1, 1000 nM | 60.7
sgRNA knockout: sgXBP1, 10000 nM | 37.6
